For this series the following is noted: 60° C., 92.5% RH, light, 40° C./75% RH and 60° C./75% RH; 5th and 10th day.

For the compound `O=C(Nc1nc2cccc(C3CCC4(CC3)CN(C(=O)[C@@H]3CC3(F)F)C4)n2n1)C1CC1` [crystal form B, (S)—N-(5-(2-(2,2-difluorocyclopropanecarbonyl)-2-azaspiro[3.5]non-7-yl)-[1,2,4]triazole[1,5-a]pyridin-2-yl) cyclopropane formamide], the “Solid stability: change of crystal form (in words)” value was “crystal form did not change”.

The values are drawn from US20240033255A1, “ORAL PREPARATION CONTAINING JAK INHIBITOR OR SALT THEREOF OR CRYSTAL FORM THEREOF, PREPARATION METHOD THEREFOR, AND APPLICATION THEREOF” (ZHUHAI UNITED LABORATORIES CO., LTD., priority 2021, published 2024).
